For the data set, the target named is T1, 6xHis-Ndt80 5A DBD S24A,S205A,T211A,S327A,S329A (Saccharomyces cerevisiae) (UniProt P38830).
T1 sequence (looked up): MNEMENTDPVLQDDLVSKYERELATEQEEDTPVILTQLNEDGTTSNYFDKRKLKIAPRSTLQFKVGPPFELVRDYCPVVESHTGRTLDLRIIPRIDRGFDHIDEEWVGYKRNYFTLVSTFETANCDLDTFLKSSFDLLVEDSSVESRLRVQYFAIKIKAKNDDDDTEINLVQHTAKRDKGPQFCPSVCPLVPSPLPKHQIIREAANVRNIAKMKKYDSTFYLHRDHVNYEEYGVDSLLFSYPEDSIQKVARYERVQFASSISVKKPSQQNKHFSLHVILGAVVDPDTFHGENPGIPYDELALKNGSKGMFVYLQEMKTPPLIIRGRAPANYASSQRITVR
The data set can be described thus: EMSA. The following applies: 50 nM DBD, 50 nM duplex, less efficient than WT; EMSA: 10 mM Tris-HCl pH 7.5, 40 mM NaCl, 4 mM MgCl2, 6% glycerol, 10 mg/ml BSA, 10 ug/ml sonicated salmon sperm DNA; 20 ul, room temperature, 30 min; 6% PAGE in 0.5X TBE; recombinant protein; residues 1-340; protein details: N-terminal 6xHis (pET-28a); label: 5' Cy3 on strand 1. For orientation: In EMSA bound probe runs differently from free probe, usually more slowly.

By UniProt entry, the sequences of proteins in these tests, tags left out. Where a name states a change or a piece, a line headed by the entry shows the natural chain unless it says otherwise.
UniProt P38830: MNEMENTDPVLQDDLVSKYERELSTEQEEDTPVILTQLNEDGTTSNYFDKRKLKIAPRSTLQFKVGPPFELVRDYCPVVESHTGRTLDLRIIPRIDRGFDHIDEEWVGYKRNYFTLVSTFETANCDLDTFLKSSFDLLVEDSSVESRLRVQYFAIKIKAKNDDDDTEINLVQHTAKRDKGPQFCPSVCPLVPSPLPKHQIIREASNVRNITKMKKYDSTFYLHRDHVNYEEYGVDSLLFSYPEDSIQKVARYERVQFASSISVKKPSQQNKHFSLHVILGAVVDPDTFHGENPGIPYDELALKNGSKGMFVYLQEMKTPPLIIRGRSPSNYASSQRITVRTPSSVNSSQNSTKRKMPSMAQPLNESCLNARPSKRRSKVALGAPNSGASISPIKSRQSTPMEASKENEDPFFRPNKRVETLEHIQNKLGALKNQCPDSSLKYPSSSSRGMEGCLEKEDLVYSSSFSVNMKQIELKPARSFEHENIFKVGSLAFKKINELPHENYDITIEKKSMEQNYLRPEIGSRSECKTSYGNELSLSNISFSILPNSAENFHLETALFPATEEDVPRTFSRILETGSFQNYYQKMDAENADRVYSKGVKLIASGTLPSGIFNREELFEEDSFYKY

The comparison behind a weaker result is the experiment's own reference, which may not be listed here. Protein sequences can lack the tags named with them.

Regarding “ATTGACGCGCGCCACAAAAACGTATCATT (double strand) [Cy3-MSE (SPS4 MSE duplex)]”, the binding result is given as “binds more weakly”.

(Values after PMC6289461, “Mek1 coordinates meiotic progression with DNA break repair by directly phosphorylating and inhibiting the yeast pachytene exit regulator Ndt80”.)
